Results deposited as PubChem BioAssay AID1259405 (NCATS, 2018)
Assay: 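Silenced genes that increase secreted GFP made by CHO cells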 (primary screen). System: Chinese hamster CHO-K1 ovary cells with stable secreted eGFP expression. Reagent: single siRNA against mouse genes, 0.8 pmol siRNA per well (2 µl of 400 nM stock). Duration: 3 days. Measurement: 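Percent of the per-plate non-targeting control median for intracellular GFP per well by laser scanning cytometry and for cell viability by ATP luminescence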. Reading the numbers: GFP, % of control: higher = more GFP per well, higher productivity; viability (ATP), % of control: higher = more viable cells (more ATP). Active means: 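a knock-down is called active if GFP reaches 120% or more of non-targeting control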.
The whole screen tested about 50,000 reagents; this is a part drawn at random. Over the whole deposit, about 4,000 (8%) are marked active. 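Mouse siRNA library applied to hamster cells; one well for each siRNA.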 Reagents against one gene are numbered here.

gene symbol	siRNA no.	GFP, % of control	viability (ATP), % of control	outcome
Kctd2 (potassium channel tetramerisation domain containing 2)	1	51.7	58.4	inactive
Kctd2 (potassium channel tetramerisation domain containing 2)	2	72.2	57.2	inactive
Kctd2 (potassium channel tetramerisation domain containing 2)	3	40.7	36.8	inactive
Hes3 (hes family bHLH transcription factor 3)	1	88.4	68.6	inactive
Hes3 (hes family bHLH transcription factor 3)	2	80.5	55.4	inactive
Hes3 (hes family bHLH transcription factor 3)	3	80.9	83.3	inactive
Ptprj (protein tyrosine phosphatase receptor type J)	1	87.7	95.5	inactive
Ptprj (protein tyrosine phosphatase receptor type J)	2	98.2	77.6	inactive
Ptprj (protein tyrosine phosphatase receptor type J)	3	106	90.1	inactive
Nfxl1 (nuclear transcription factor, X-box binding-like 1)	1	86.2	89.8	inactive
Nfxl1 (nuclear transcription factor, X-box binding-like 1)	2	105	95.9	inactive
Nfxl1 (nuclear transcription factor, X-box binding-like 1)	3	106	89.8	inactive
Sdc3 (syndecan 3)	1	65.3	63.5	inactive
Sdc3 (syndecan 3)	2	49.9	63.4	inactive
Sdc3 (syndecan 3)	3	76.6	60.6	inactive
Ntmt1 (N-terminal Xaa-Pro-Lys N-methyltransferase 1)	1	89.5	53	inactive
Ntmt1 (N-terminal Xaa-Pro-Lys N-methyltransferase 1)	2	68.9	71.3	inactive
Ntmt1 (N-terminal Xaa-Pro-Lys N-methyltransferase 1)	3	67.8	61.1	inactive
Tmx3 (thioredoxin-related transmembrane protein 3)	1	85.5	122	inactive
Tmx3 (thioredoxin-related transmembrane protein 3)	2	50.7	64.6	inactive
Tmx3 (thioredoxin-related transmembrane protein 3)	3	44.1	54.5	inactive
Glra2 (glycine receptor, alpha 2 subunit)	1	72.1	75	inactive
Glra2 (glycine receptor, alpha 2 subunit)	2	153	113	active
Glra2 (glycine receptor, alpha 2 subunit)	3	53.7	64.2	inactive
Pdzd8 (PDZ domain containing 8)	1	64.1	70.4	inactive
Pdzd8 (PDZ domain containing 8)	2	54.3	68.3	inactive
Pdzd8 (PDZ domain containing 8)	3	48	91.1	inactive
Foxo3 (forkhead box O3)	1	67.7	64.3	inactive
Foxo3 (forkhead box O3)	2	95.2	92	inactive
Camk1g (calcium/calmodulin-dependent protein kinase I gamma)	1	86	87.1	inactive
Rbm4 (RNA binding motif protein 4)	1	148	133	active
Rbm4 (RNA binding motif protein 4)	2	107	102	inactive
Krt20 (keratin 20)	1	33.7	56.6	inactive
Krt20 (keratin 20)	2	78.5	67.1	inactive
Krt20 (keratin 20)	3	117	76.4	inactive
Cmtm8 (CKLF-like MARVEL transmembrane domain containing 8)	1	105	85.2	inactive
Cmtm8 (CKLF-like MARVEL transmembrane domain containing 8)	2	110	83.4	inactive
Cmtm8 (CKLF-like MARVEL transmembrane domain containing 8)	3	59.4	97.1	inactive
Prom2 (prominin 2)	1	76.9	86.7	inactive
Prom2 (prominin 2)	2	64.6	59.9	inactive
Lrit2	1	60.5	66.3	inactive
Lrit2	2	106	73.7	inactive
Lrit2	3	93.5	103	inactive
Emcn (endomucin)	1	60.8	79.1	inactive
Emcn (endomucin)	2	117	72.4	inactive
Emcn (endomucin)	3	131	68.7	active
Dclk1 (doublecortin-like kinase 1)	1	53.5	47.8	inactive
Dclk1 (doublecortin-like kinase 1)	2	76.6	83.7	inactive
Cep19 (centrosomal protein 19)	1	83.5	66.9	inactive
Cep19 (centrosomal protein 19)	2	61.7	69.6	inactive
Cep19 (centrosomal protein 19)	3	104	77.6	inactive
Acat2 (acetyl-Coenzyme A acetyltransferase 2)	1	80.8	95.6	inactive
Acat2 (acetyl-Coenzyme A acetyltransferase 2)	2	125	113	active
Acat2 (acetyl-Coenzyme A acetyltransferase 2)	3	93	81.8	inactive
D630039A03Rik (RIKEN cDNA D630039A03 gene)	1	80	106	inactive
D630039A03Rik (RIKEN cDNA D630039A03 gene)	2	99.8	85.9	inactive
D630039A03Rik (RIKEN cDNA D630039A03 gene)	3	114	104	inactive
Rai2 (retinoic acid induced 2)	1	60.8	54.5	inactive
Rai2 (retinoic acid induced 2)	2	58.3	47.5	inactive
Rai2 (retinoic acid induced 2)	3	51.8	57.8	inactive
Slc9b1	1	34.4	45.4	inactive
Slc9b1	2	63.9	85.9	inactive
Slc9b1	3	98.8	119	inactive
Pira2 (paired-Ig-like receptor A2)	1	135	81.7	active
Pira2 (paired-Ig-like receptor A2)	2	55.9	51	inactive
Pira2 (paired-Ig-like receptor A2)	3	23.5	28.3	inactive
Or12d13 (olfactory receptor family 12 subfamily D member 13)	1	70.1	61.1	inactive
Or12d13 (olfactory receptor family 12 subfamily D member 13)	2	85.2	95.9	inactive
Or12d13 (olfactory receptor family 12 subfamily D member 13)	3	75.6	65.2	inactive
Mif	1	116	148	inactive
Mif	2	93.1	70.8	inactive
Nelfe (negative elongation factor complex member E, Rdbp)	1	78.3	52	inactive
Nelfe (negative elongation factor complex member E, Rdbp)	2	83.5	59.9	inactive
Adcy8 (adenylate cyclase 8)	1	140	117	active
Adcy8 (adenylate cyclase 8)	2	68.6	72	inactive
Adcy8 (adenylate cyclase 8)	3	98.4	77.2	inactive
Hmg20b (high mobility group 20B)	1	73.5	65.9	inactive
Hmg20b (high mobility group 20B)	2	110	60.7	inactive
Hmg20b (high mobility group 20B)	3	100	97.7	inactive
Msra (methionine sulfoxide reductase A)	1	53.2	47.8	inactive
Msra (methionine sulfoxide reductase A)	2	59.3	86.6	inactive
Msra (methionine sulfoxide reductase A)	3	37.9	51.7	inactive
2310011J03Rik (RIKEN cDNA 2310011J03 gene)	1	175	62.2	active
2310011J03Rik (RIKEN cDNA 2310011J03 gene)	2	74.5	48.6	inactive
2310011J03Rik (RIKEN cDNA 2310011J03 gene)	3	77.7	64	inactive
Kctd4 (potassium channel tetramerisation domain containing 4)	1	75.1	78.5	inactive
Kctd4 (potassium channel tetramerisation domain containing 4)	2	111	112	inactive
Bub1 (BUB1, mitotic checkpoint serine/threonine kinase)	1	74.1	81.8	inactive
Ermp1 (endoplasmic reticulum metallopeptidase 1)	1	95.5	79.9	inactive
Ermp1 (endoplasmic reticulum metallopeptidase 1)	2	77.8	85.7	inactive
Ermp1 (endoplasmic reticulum metallopeptidase 1)	3	60.7	67.6	inactive
Slc9d1	1	88.6	109	inactive
Slc9d1	2	81.7	90.6	inactive
Edem2 (ER degradation enhancer, mannosidase alpha-like 2)	1	56.5	51	inactive
Edem2 (ER degradation enhancer, mannosidase alpha-like 2)	2	79.6	99.9	inactive
Edem2 (ER degradation enhancer, mannosidase alpha-like 2)	3	52.8	73.7	inactive
Mns1 (meiosis-specific nuclear structural protein 1)	1	51.3	38	inactive
Mns1 (meiosis-specific nuclear structural protein 1)	2	78.3	55.8	inactive
Mns1 (meiosis-specific nuclear structural protein 1)	3	60.8	52.6	inactive
Ctsj (cathepsin J)	1	42.7	47.6	inactive
Ctsj (cathepsin J)	2	51.8	64.7	inactive
Ctsj (cathepsin J)	3	65.1	82.5	inactive
Arhgap33 (Rho GTPase activating protein 33)	1	71.6	92.9	inactive
Arhgap33 (Rho GTPase activating protein 33)	2	96.9	61.6	inactive
Arhgap33 (Rho GTPase activating protein 33)	3	63.8	62.6	inactive
C130023O10Rik (RIKEN cDNA C130023O10 gene)	1	41.1	74.8	inactive
C130023O10Rik (RIKEN cDNA C130023O10 gene)	2	70.4	81.2	inactive
C130023O10Rik (RIKEN cDNA C130023O10 gene)	3	172	119	active

Already shown: entries from further up.
gene symbol	siRNA no.	GFP, % of control	viability (ATP), % of control	outcome
Acat2 (acetyl-Coenzyme A acetyltransferase 2)	2	125	113	active
Acat2 (acetyl-Coenzyme A acetyltransferase 2)	3	93	81.8	inactive
D630039A03Rik (RIKEN cDNA D630039A03 gene)	1	80	106	inactive
D630039A03Rik (RIKEN cDNA D630039A03 gene)	2	99.8	85.9	inactive
D630039A03Rik (RIKEN cDNA D630039A03 gene)	3	114	104	inactive
Rai2 (retinoic acid induced 2)	1	60.8	54.5	inactive
Rai2 (retinoic acid induced 2)	2	58.3	47.5	inactive
Rai2 (retinoic acid induced 2)	3	51.8	57.8	inactive
Slc9b1	1	34.4	45.4	inactive
Slc9b1	2	63.9	85.9	inactive
Slc9b1	3	98.8	119	inactive
Pira2 (paired-Ig-like receptor A2)	1	135	81.7	active
Pira2 (paired-Ig-like receptor A2)	2	55.9	51	inactive
Pira2 (paired-Ig-like receptor A2)	3	23.5	28.3	inactive
